Where a chain is given by its changes, count along the chain named. These are yes or no findings as the source states them, for the method shown. Binding seen in cells or lysates may run through a third protein. Some results given as binding are weak or reduced against the parent protein; the word gives no strength.
How the values were obtained:
Assay in all cases: co-IP; immunoprecipitation with α-KSR1 antibodies from lysates of 293T cells transfected with KSR1 vectors; 2 mg lysate, 50 mM Tris-HCl pH 7.4, 150 mM NaCl, 0.5% NP-40, 4 °C; blots for KSR1, BRAF, RAF1 and MEK1
[1] = target: T1, kinase suppressor of RAS 1 (KSR1), wild type (mouse) (UniProt Q61097)
T1 sequence: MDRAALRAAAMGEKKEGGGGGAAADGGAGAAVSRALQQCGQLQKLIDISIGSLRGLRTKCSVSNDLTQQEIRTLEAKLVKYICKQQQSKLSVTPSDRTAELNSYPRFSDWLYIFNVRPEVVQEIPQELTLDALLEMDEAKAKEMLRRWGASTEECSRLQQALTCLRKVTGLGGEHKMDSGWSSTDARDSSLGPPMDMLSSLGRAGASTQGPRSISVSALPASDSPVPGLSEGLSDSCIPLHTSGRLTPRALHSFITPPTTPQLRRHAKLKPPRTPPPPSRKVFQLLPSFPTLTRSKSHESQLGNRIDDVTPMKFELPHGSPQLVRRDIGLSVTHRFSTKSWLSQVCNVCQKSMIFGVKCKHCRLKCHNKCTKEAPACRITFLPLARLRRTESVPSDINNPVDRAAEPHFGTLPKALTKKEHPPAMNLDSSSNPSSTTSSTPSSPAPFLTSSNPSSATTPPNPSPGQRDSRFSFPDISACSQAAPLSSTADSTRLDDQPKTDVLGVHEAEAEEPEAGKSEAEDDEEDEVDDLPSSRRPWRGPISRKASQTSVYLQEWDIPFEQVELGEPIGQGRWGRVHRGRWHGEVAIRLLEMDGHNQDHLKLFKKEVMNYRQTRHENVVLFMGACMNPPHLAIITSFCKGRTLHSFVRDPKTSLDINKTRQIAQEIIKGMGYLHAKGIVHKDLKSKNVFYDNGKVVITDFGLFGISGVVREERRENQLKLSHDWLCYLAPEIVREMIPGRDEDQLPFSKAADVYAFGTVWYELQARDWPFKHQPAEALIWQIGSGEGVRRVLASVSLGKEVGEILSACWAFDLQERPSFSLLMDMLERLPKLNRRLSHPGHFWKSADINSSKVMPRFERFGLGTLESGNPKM

Amino acid sequences for entries named in this document (tags omitted).
UniProt P15056: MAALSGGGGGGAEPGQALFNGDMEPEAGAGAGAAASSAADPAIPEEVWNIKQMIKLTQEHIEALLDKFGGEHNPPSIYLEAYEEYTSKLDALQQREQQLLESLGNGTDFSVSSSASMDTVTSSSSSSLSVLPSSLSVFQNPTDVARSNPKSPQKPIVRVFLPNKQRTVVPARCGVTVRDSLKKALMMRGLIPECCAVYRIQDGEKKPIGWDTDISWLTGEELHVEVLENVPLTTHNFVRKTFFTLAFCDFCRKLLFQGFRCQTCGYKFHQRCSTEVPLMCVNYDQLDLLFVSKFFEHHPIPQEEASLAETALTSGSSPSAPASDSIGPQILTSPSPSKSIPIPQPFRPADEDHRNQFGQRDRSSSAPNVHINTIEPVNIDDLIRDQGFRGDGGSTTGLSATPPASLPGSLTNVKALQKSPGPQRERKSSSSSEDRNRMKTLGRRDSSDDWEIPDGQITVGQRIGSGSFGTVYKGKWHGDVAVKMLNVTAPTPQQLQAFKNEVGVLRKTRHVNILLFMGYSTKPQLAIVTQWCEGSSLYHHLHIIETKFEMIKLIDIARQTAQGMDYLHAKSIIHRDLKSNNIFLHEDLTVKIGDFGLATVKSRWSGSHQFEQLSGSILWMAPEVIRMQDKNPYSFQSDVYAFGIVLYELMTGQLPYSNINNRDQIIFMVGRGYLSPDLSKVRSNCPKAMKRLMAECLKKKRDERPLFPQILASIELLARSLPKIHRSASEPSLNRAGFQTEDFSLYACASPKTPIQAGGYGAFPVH

[2] = target: T2, KSR1^F701A (mouse) (UniProt Q61097)
T2 sequence: T1 sequence with F701A

[3] = target: T3, KSR1^D700A (mouse) (UniProt Q61097)
T3 sequence: T1 sequence with D700A

[4] = target: T4, KSR1^D683A (mouse) (UniProt Q61097)
T4 sequence: T1 sequence with D683A

binding [1]: binds
binding [2]: binds
binding [3]: binds
binding [4]: binds
Substance: BRAF (from UniProt P15056 1-766)

From article PMC9441002
